Test results published in publication PMC8511950.
These are yes or no findings as the source states them, for the method shown. Binding seen in cells or lysates may run through a third protein. Here binding means that the protein was enriched with, or labelled near, the bait; the list need not be complete. Tags and fused reporters may be left off the sequences shown.

The chains behind the UniProt entries cited, without tags or fusion partners.
UniProt P16370: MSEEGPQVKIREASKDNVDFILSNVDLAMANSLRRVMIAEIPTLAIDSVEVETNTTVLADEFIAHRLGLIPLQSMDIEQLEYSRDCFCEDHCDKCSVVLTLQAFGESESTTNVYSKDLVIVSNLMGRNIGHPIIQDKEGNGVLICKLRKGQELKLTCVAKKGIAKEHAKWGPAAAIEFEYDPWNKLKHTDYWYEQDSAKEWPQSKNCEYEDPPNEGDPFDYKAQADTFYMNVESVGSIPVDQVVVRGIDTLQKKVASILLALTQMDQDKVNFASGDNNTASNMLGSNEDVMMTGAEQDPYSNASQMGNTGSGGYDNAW

Molecular target: Rpb3 with C-terminal BioTAP tag (S. cerevisiae) (UniProt P16370)
Test: affinity purification with mass spectrometry; BioTAP-XL two-step purification of Rpb3-BioTAP (IgG beads, then streptavidin agarose) from 1% formaldehyde-cross-linked wildtype and spt6-1004 cells shifted to 37 °C for 80 min; on-bead trypsin digestion, TMT labelling, MS3 quantification; untagged wildtype and spt6-1004 cells as controls; FDR cutoff 0.05

binding | Binder
binds | Toa1 (protein, UniProt P32773 1-286) MSNAEASRVYEIIVESVVNEVREDFENAGIDEQTLQDLKNIWQKKLTETKVTTFSWDNQFNEGNINGVQNDLNFNLATPGVNSSEFNIKEENTGNEGLILPNINSNNNIPHSGETNINTNTVEATNNSGATLNTNTSGNTNADVTSQPKIEVKPEIELTINNANITTVENIDDESEKKDDEEKEEDVEKTRKEKEQIEQVKLQAKKEKRSALLDTDEVGSELDDSDDDYLISEGEEDGPDENLMLCLYDKVTRTKARWKCSLKDGVVTINRNDYTFQKAQVEAEWV
binds | Utp25 (protein, UniProt P40498 1-721) MSDSSVREKNDNFRGYRKRGRQELRKIKRSSARTEGGSTETLEDVAEDIDHRSDEDEVSDVDSGDDFDIEDEEGKKEKVYDALLTILKSEHPEPKRRRREADESNKAPAEVGEDEHENTEHGPVDDQLEIENGLLGNHEDDNDDDSSGDEKDIDSEDEQDPFESHFNQVPEKFVDKLSNAFKTKSVKYKSVKGSLSDSESYIYAKPVVIGEEALVESPYRSSSIYSYFLKQRLKVQNGLLDKKTDPLTALQKKLVDPMFQYKDILYEYDSYEKDEDEYRDLYALHVLNHIYKTRDRILKNNQRLQDNPDTEHLDQGFTRPKVLIVVPTREVAYRVVDKIISKSGIDQVDKKGKFYDQFRDDSLPPKSKPKSFQHIFRGNTNDFFVVGLKFTRKAIKLYSNFYQSDIIVCSPLGIQMILENTDKKKRQDDFLSSIELMVIDQLHSIEYQNISHIFTIFDHLNKIPDQQHEADFSRIRMWYINEQAKLFRQTMVFTKYISPAANSLINGRCRNMAGRWKNHKVIGSENSSIGQSGLKIRQIFQRFDIIGNSIIEEPDYRFKFFTSVIIPGIVKSTGYEDGILIYIPDYTDFIRIRNYMKEKTTILFGDINEYSSQRQLNANRSLFQQGRLKVMLYTERLHHYRRYEIKGVKSVVFYKPPNNPEFYNEVVRFIGKNAFLGNTDLNISTVRCIYSKLDGLSLERIVGTKRAAVLSHAQKEIYEFK
binds | Leo1 (protein, UniProt P38439 1-464) MSSESPQDQPQKEQISNNVGVTTNSTSNEETSRSQDDNVKEVNGNDDTKEEEQEEDAELDDLFGDDNDDDDDDDVKKSETEKSDSDSDEDDEGENINHRSRHRESLGLDDDEAEEQAMYTRKFYGEDANNFSDQDETTHTFKEENVELVRHIIPSKANVNETASHNEIFYARIPNFLTIDPIPFDPPSFEAKVNERASNSASREDQLDDRLIDENTVRWRYSRDKDQHVFKESNTQIVQWSDGTYSLKVGEECTDILVNDTSNTFLTVSHDQQELIQCYEGGEIKKTLMFIPTSTNSKIHQKLSKAVIRRNQRQSKGPGTYIVSMDPEVEKKELERKQSQILRDRRRRQLKEKEKQESPDAAFETGFRKQNSPTTYGASRRNEYEEDDFLVDDDEEEEAAFDDEEDDNEEEEEEEDADEENASRLRNLKREGAAMYREEEEEEKDRSETKRRRVAVIEDDEDED

Second part, the binder before the results:

Binder | binding
Toa2 (protein, UniProt P32774 1-122) MAVPGYYELYRRSTIGNSLVDALDTLISDGRIEASLAMRVLETFDKVVAETLKDNTQSKLTVKGNLDTYGFCDDVWTFIVKNCQVTVEDSHRDASQNGSGDSQSVISVDKLRIVACNSKKSE | binds
Ubp14 (protein, UniProt P38237 1-781) MAEAVLENVNVPAVVSKDECIYCFESPYNEPLALNASPKHSLNICLNCFQATCNRHVPLHIRVTEYACDTIHSNYLTIAKVEKPKQENVEENNNNKKIKLQVIETSEDDTHNTIWSLQRFNGENVPRTVLSKSTDSDISSTALEKIEKILKAKSQDFEDKKNSWVLEISTCPHTENFQIPSKPENTVNLNQCSSCDLTQNLWLCLHCGNIGCGREQIGIDGHSHALDHYRSNNNHPLAIKLGSLSSSTYDLYCYACDDETRFPDNVNLGSALQIYGINIQEKIADEKTLVQLQVEQNENWQFRMVDSSGKEFEKLSASKNYGCGLINLGNSCYLNSVIQSLVNGGVPNWSLDFLGSKFPLDVVYPDNNLKCQWIKLLNAMKCEPELYPNGIKPTTFKKCIGQNHQEFSSNRQQDAMEFLTFLLDLLDKKFFSSSSSGIPNPNDLVRFMMEDRLQCNICGKVKYSYEPTEAIQIPLEENDEPQDMLERIKAYFEGQTIEFKCANCKEKVTANKKPGFKSLPQTLILNPIRIRLQNWIPVKTSNELSLPGLIDRDDMLDVSSYLSQGFDPQTENLLPDEDENRSSFTPNQCSISQLIEMGFTQNASVRALFNTGNQDAESAMNWLFQHMDDPDLNDPFVPPPNVPKKDKREVDEVSLTSMLSMGLNPNLCRKALILNNGDVNRSVEWVFNNMDDDGTFPEPEVPNEEQQQKKDLGYSTAKPYALTAVICHKGNSVHSGHYVVFIRKLVADKWKWVLYNDEKLVAADSIEDMKKNGYIYFYTRC | binds
Iwr1 (protein, UniProt Q07532 1-353) MSTISTTTAPEFIRVKRRRDEDSVQALLIDEGKRVKKQKFIFKLSKTVSSESYQSEQESSTPLLKLAHEDHRHFVLEQRKKSRRDSDDEKSQQRLAAEGSTVDDDGLPPEINQMVNDYLKLNKGVEKTERKKPSRKYFTGDSAKIASLPSLDYVFDIYHLEKIHDDEVARYNNEKNIGFVKIIEHIDLALDEESDPNEARSDDEDSNDENYYQNDYPEDEDDDRSILFGSEGEDIAALGEEIVIGVNKSRFSSWNDDKIQGSNGYHDVEEEYGDLFNRLGGKSDVLKSINSSNFIDLDGQEGEIEISDNEDDSDEGDDIEYPRNEFFPTDVDDPLAHHRDRIFHQLQKKINRS | binds
Set2 (enzyme, UniProt P46995 1-733) MSKNQSVSASEDEKEILNNNAEGHKPQRLFDQEPDLTEEALTKFENLDDCIYANKRIGTFKNNDFMECDCYEEFSDGVNHACDEDSDCINRLTLIECVNDLCSSCGNDCQNQRFQKKQYAPIAIFKTKHKGYGVRAEQDIEANQFIYEYKGEVIEEMEFRDRLIDYDQRHFKHFYFMMLQNGEFIDATIKGSLARFCNHSCSPNAYVNKWVVKDKLRMGIFAQRKILKGEEITFDYNVDRYGAQAQKCYCEEPNCIGFLGGKTQTDAASLLPQNIADALGVTVSMEKKWLKLKKLSGEPIIKNENENINIEFLQSLEVQPIDSPVDVTKIMSVLLQQDNKIIASKLLKRLFTIDDDSLRHQAIKLHGYTCFSKMLKLFITEQPQVDGKGNETEEDDIKFIKGILDFLLELPKTTRNGIESSQIDNVVKTLPAKFPFLKPNCDELLEKWSKFETYKRITKKDINVAASKMIDLRRVRLPPGWEIIHENGRPLYYNAEQKTKLHYPPSGSSKVFSSRSNTQVNSPSSSGIPKTPGALDSKKHKLSDEEYERKKQKRLEYERIALERAKQEELESLKQKLKLENERKSVLEDIIAEANKQKELQKEEAKKLVEAKEAKRLKRKTVSQSQRLEHNWNKFFASFVPNLIKKNPQSKQFDHENIKQCAKDIVKILTTKELKKDSSRAPPDDLTKGKRHKVKEFINSYMDKIILKKKQKKALALSSASTRMSSPPPSTSS | binds
His5 (protein, UniProt P07172 1-385) MVFDLKRIVRPKIYNLEPYRCARDDFTEGILLDANENAHGPTPVELSKTNLHRYPDPHQLEFKTAMTKYRNKTSSYANDPEVKPLTADNLCLGVGSDESIDAIIRACCVPGKEKILVLPPTYSMYSVCANINDIEVVQCPLTVSDGSFQMDTEAVLTILKNDSLIKLMFVTSPGNPTGAKIKTSLIEKVLQNWDNGLVVVDEAYVDFCGGSTAPLVTKYPNLVTLQTLSKSFGLAGIRLGMTYATAELARILNAMKAPYNISSLASEYALKAVQDSNLKKMEATSKIINEEKMRLLKELTALDYVDDQYVGGLDANFLLIRINGGDNVLAKKLYYQLATQSGVVVRFRGNELGCSGCLRITVGTHEENTHLIKYFKETLYKLANE | binds
Tal1 (protein, UniProt P15019 1-335) MSEPAQKKQKVANNSLEQLKASGTVVVADTGDFGSIAKFQPQDSTTNPSLILAAAKQPTYAKLIDVAVEYGKKHGKTTEEQVENAVDRLLVEFGKEILKIVPGRVSTEVDARLSFDTQATIEKARHIIKLFEQEGVSKERVLIKIASTWEGIQAAKELEEKDGIHCNLTLLFSFVQAVACAEAQVTLISPFVGRILDWYKSSTGKDYKGEADPGVISVKKIYNYYKKYGYKTIVMGASFRSTDEIKNLAGVDYLTISPALLDKLMNSTEPFPRVLDPVSAKKEAGDKISYISDESKFRFDLNEDAMATEKLSEGIRKFSADIVTLFDLIEKKVTA | binds
Wtm1 (protein, UniProt Q12363 1-437) MPKKVWKSSTPSTYEHISSLRPKFVSRVDNVLHQRKSLTFSNVVVPDKKNNTLTSSVIYSQGSDIYEIDFAVPLQEAASEPVKDYGDAFEGIENTSLSPKFVYQGETVSKMAYLDKTGETTLLSMSKNGSLAWFKEGIKVPIHIVQELMGPATSYASIHSLTRPGDLPEKDFSLAISDFGISNDTETIVKSQSNGDEEDSILKIIDNAGKPGEILRTVHVPGTTVTHTVRFFDNHIFASCSDDNILRFWDTRTSDKPIWVLGEPKNGKLTSFDCSQVSNNLFVTGFSTGIIKLWDARAAEAATTDLTYRQNGEDPIQNEIANFYHAGGDSVVDVQFSATSSSEFFTVGGTGNIYHWNTDYSLSKYNPDDTIAPPQDATEESQTKSLRFLHKGGSRRSPKQIGRRNTAAWHPVIENLVGTVDDDSLVSIYKPYTEESE | binds
